{"source": "the supplement of paper PMC8728848", "experiment_in_all_cases": "glycan array binding signal (z-score within array); higher = stronger binding", "conditions_in_all_cases": "glycan notation: IUPAC condensed, linker removed", "key": {"Gal(b1-2)Gal": {"biological_target": "Gal(b1-2)Gal", "in_short": "(§1)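 Arrays were curated from the Consortium for Functional Glycomics database, 3228 in total, and kept only where the protein sequence was available. Binding is expressed as a within-array Z-score. This score was averaged across arrays of the same protein sequence at different concentrations or buffers and across linkers, and negative values can be read as non-binding.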"}, "Gal(b1-3)Gal": {"biological_target": "Gal(b1-3)Gal", "in_short": "as §1"}, "Gal(b1-3)Gal(b1-4)GlcNAc": {"biological_target": "Gal(b1-3)Gal(b1-4)GlcNAc", "in_short": "as §1"}, "Gal(b1-3)GalNAc": {"biological_target": "Gal(b1-3)GalNAc", "in_short": "as §1"}, "[1]": {"biological_target": "Gal(b1-3)GalNAc(a1-3)[Fuc(a1-2)]Gal(b1-4)Glc", "in_short": "as §1"}, "[2]": {"biological_target": "Gal(b1-3)GalNAc(a1-3)[Fuc(a1-2)]Gal(b1-4)GlcNAc", "in_short": "as §1"}, "Gal(b1-3)GalNAc(b1-3)Gal": {"biological_target": "Gal(b1-3)GalNAc(b1-3)Gal", "in_short": "as §1"}, "[3]": {"biological_target": "Gal(b1-3)GalNAc(b1-3)Gal(a1-4)Gal(b1-4)Glc", "in_short": "as §1"}, "[4]": {"biological_target": "Gal(b1-3)GalNAc(b1-4)Gal(b1-4)Glc", "in_short": "as §1"}, "[5]": {"biological_target": "Gal(b1-3)GalNAc(b1-4)[Neu5Ac(a2-3)]Gal(b1-4)Glc", "in_short": "as §1"}, "Gal(b1-3)GlcNAc": {"biological_target": "Gal(b1-3)GlcNAc", "in_short": "as §1"}, "[6]": {"biological_target": "Gal(b1-3)GlcNAc(a1-3)Gal(b1-4)GlcNAc", "in_short": "as §1"}, "[7]": {"biological_target": "Gal(b1-3)GlcNAc(a1-6)Gal(b1-4)GlcNAc", "in_short": "as §1"}, "Gal(b1-3)GlcNAc(b1-2)Man": {"biological_target": "Gal(b1-3)GlcNAc(b1-2)Man", "in_short": "as §1"}, "[8]": {"biological_target": "Gal(b1-3)GlcNAc(b1-2)Man(a1-3)[Gal(b1-3)GlcNAc(b1-2)Man(a1-6)]Man(b1-4)GlcNAc(b1-4)GlcNAc", "in_short": "as §1"}, "[9]": {"biological_target": "Gal(b1-3)GlcNAc(b1-2)Man(a1-3)[Gal(b1-3)GlcNAc(b1-2)Man(a1-6)]Man(b1-4)GlcNAc(b1-4)[Fuc(a1-6)]GlcNAc", "in_short": "as §1"}, "[10]": {"biological_target": "Gal(b1-3)GlcNAc(b1-2)Man(a1-3)[GlcNAc(b1-4)][Gal(b1-3)GlcNAc(b1-2)Man(a1-6)]Man(b1-4)GlcNAc(b1-4)GlcNAc", "in_short": "as §1"}, "[11]": {"biological_target": "Gal(b1-3)GlcNAc(b1-2)[Gal(b1-3)GlcNAc(b1-6)]Man(a1-6)[Gal(b1-3)GlcNAc(b1-2)Man(a1-3)]Man(b1-4)GlcNAc(b1-4)GlcNAc", "in_short": "as §1"}, "[12]": {"biological_target": "Gal(b1-3)GlcNAc(b1-3)Gal(b1-3)GlcNAc", "in_short": "as §1"}, "[13]": {"biological_target": "Gal(b1-3)GlcNAc(b1-3)Gal(b1-4)Glc", "in_short": "as §1"}, "[14]": {"biological_target": "Gal(b1-3)GlcNAc(b1-3)Gal(b1-4)GlcNAc", "in_short": "as §1"}, "[15]": {"biological_target": "Gal(b1-3)GlcNAc(b1-3)Gal(b1-4)GlcNAc(b1-2)Man(a1-3)[Gal(b1-3)GlcNAc(b1-3)Gal(b1-4)GlcNAc(b1-2)Man(a1-6)]Man(b1-4)GlcNAc(b1-4)GlcNAc", "in_short": "as §1"}, "[16]": {"biological_target": "Gal(b1-3)GlcNAc(b1-3)Gal(b1-4)GlcNAc(b1-2)[Gal(b1-3)GlcNAc(b1-3)Gal(b1-4)GlcNAc(b1-6)]Man(a1-6)[Gal(b1-3)GlcNAc(b1-3)Gal(b1-4)GlcNAc(b1-2)Man(a1-3)]Man(b1-4)GlcNAc(b1-4)[Fuc(a1-6)]GlcNAc", "in_short": "as §1"}, "[17]": {"biological_target": "Gal(b1-3)GlcNAc(b1-3)Gal(b1-4)GlcNAc(b1-3)Gal(b1-4)GlcNAc(b1-2)[Gal(b1-3)GlcNAc(b1-3)Gal(b1-4)GlcNAc(b1-3)Gal(b1-4)GlcNAc(b1-6)]Man(a1-6)[Gal(b1-3)GlcNAc(b1-3)Gal(b1-4)GlcNAc(b1-3)Gal(b1-4)GlcNAc(b1-2)Man(a1-3)]Man(b1-4)GlcNAc(b1-4)[Fuc(a1-6)]GlcNAc", "in_short": "as §1"}, "[18]": {"biological_target": "Gal(b1-3)GlcNAc(b1-3)Gal(b1-4)GlcNAc(b1-6)[Gal(b1-3)GlcNAc(b1-3)]Gal(b1-4)Glc", "in_short": "as §1"}, "[19]": {"biological_target": "Gal(b1-3)GlcNAc(b1-3)Gal(b1-4)[Fuc(a1-3)]GlcNAc", "in_short": "as §1"}, "[20]": {"biological_target": "Gal(b1-3)GlcNAc(b1-3)Gal(b1-4)[Fuc(a1-3)]GlcNAc(b1-6)[Gal(b1-3)GlcNAc(b1-3)]Gal(b1-4)Glc", "in_short": "as §1"}, "[21]": {"biological_target": "Gal(b1-3)GlcNAc(b1-3)GalNAc", "in_short": "as §1"}, "[22]": {"biological_target": "Gal(b1-3)GlcNAc(b1-6)Gal(b1-4)GlcNAc", "in_short": "as §1"}, "[23]": {"biological_target": "Gal(b1-3)GlcNAc(b1-6)GalNAc", "in_short": "as §1"}, "[24]": {"biological_target": "Gal(b1-3)GlcNAc(b1-6)[Gal(b1-3)]GalNAc", "in_short": "as §1"}, "Gal(b1-3)GlcNAc6S": {"biological_target": "Gal(b1-3)GlcNAc6S", "in_short": "as §1"}, "[25]": {"biological_target": "Gal(b1-3)[Fuc(a1-4)]GlcNAc", "in_short": "as §1"}, "[26]": {"biological_target": "Gal(b1-3)[Fuc(a1-4)]GlcNAc(b1-2)Man", "in_short": "as §1"}, "[27]": {"biological_target": "Gal(b1-3)[Fuc(a1-4)]GlcNAc(b1-2)Man(a1-3)[Gal(b1-3)[Fuc(a1-4)]GlcNAc(b1-2)Man(a1-6)]Man(b1-4)GlcNAc(b1-4)[Fuc(a1-6)]GlcNAc", "in_short": "as §1"}, "[28]": {"biological_target": "Gal(b1-3)[Fuc(a1-4)]GlcNAc(b1-3)Gal(b1-3)[Fuc(a1-4)]GlcNAc", "in_short": "as §1"}, "[29]": {"biological_target": "Gal(b1-3)[Fuc(a1-4)]GlcNAc(b1-3)Gal(b1-4)[Fuc(a1-3)]GlcNAc", "in_short": "as §1"}, "[30]": {"biological_target": "Gal(b1-3)[Fuc(a1-4)]GlcNAc(b1-6)GalNAc", "in_short": "as §1"}, "[31]": {"biological_target": "Gal(b1-3)[GlcNAc(b1-6)]GalNAc", "in_short": "as §1"}, "[32]": {"biological_target": "Gal(b1-3)[Neu5Ac(a2-6)]GalNAc", "in_short": "as §1"}, "[33]": {"biological_target": "Gal(b1-3)[Neu5Ac(a2-6)]GlcNAc(b1-4)Gal(b1-4)Glc", "in_short": "as §1"}, "[34]": {"biological_target": "Gal(b1-3)[Neu5Ac(b2-6)]GalNAc", "in_short": "as §1"}, "Gal(b1-4)Gal": {"biological_target": "Gal(b1-4)Gal", "in_short": "as §1"}, "[35]": {"biological_target": "Gal(b1-4)GalNAc(a1-3)[Fuc(a1-2)]Gal(b1-4)GlcNAc", "in_short": "as §1"}, "[36]": {"biological_target": "Gal(b1-4)GalNAc(b1-3)[Fuc(a1-2)]Gal(b1-4)GlcNAc", "in_short": "as §1"}}, "note": "The other results are listed elsewhere or left out."}
{"binder": "LlpB (Pseudomonas fluorescens) (protein) MGSSHHHHHHSSGLVPRGSHMASSGFRIILFNSANNGTAILPPRNCLVAGQYLESPSKRYKLILEADGNLRLYDNGVPIWVADSSVPYTYVDNRPNTNLVTCFYMQGSAFLVDRVGSRTWATIGDWIDGAADRAYLQVQDDGNVVVVDGVPRWARFGFTPAALPNRGVFYPDHGTGPLPSFPVWSWTF", "values": [{"measurement": "glycan array binding signal (z-score)", "setting": "Gal(b1-2)Gal", "result": -0.578}, {"measurement": "glycan array binding signal (z-score)", "setting": "Gal(b1-3)Gal", "result": -0.357}, {"measurement": "glycan array binding signal (z-score)", "setting": "Gal(b1-3)Gal(b1-4)GlcNAc", "result": -0.271}, {"measurement": "glycan array binding signal (z-score)", "setting": "Gal(b1-3)GalNAc", "result": 0.211}, {"measurement": "glycan array binding signal (z-score)", "setting": "[1]", "result": 0.486}, {"measurement": "glycan array binding signal (z-score)", "setting": "[2]", "result": -0.127}, {"measurement": "glycan array binding signal (z-score)", "setting": "Gal(b1-3)GalNAc(b1-3)Gal", "result": -0.528}, {"measurement": "glycan array binding signal (z-score)", "setting": "[3]", "result": -0.025}, {"measurement": "glycan array binding signal (z-score)", "setting": "[4]", "result": 0.811}, {"measurement": "glycan array binding signal (z-score)", "setting": "[5]", "result": -0.792}, {"measurement": "glycan array binding signal (z-score)", "setting": "Gal(b1-3)GlcNAc", "result": 0.344}, {"measurement": "glycan array binding signal (z-score)", "setting": "[6]", "result": 0.12}, {"measurement": "glycan array binding signal (z-score)", "setting": "[7]", "result": -0.47}, {"measurement": "glycan array binding signal (z-score)", "setting": "Gal(b1-3)GlcNAc(b1-2)Man", "result": -0.419}, {"measurement": "glycan array binding signal (z-score)", "setting": "[8]", "result": -0.522}, {"measurement": "glycan array binding signal (z-score)", "setting": "[9]", "result": -0.303}, {"measurement": "glycan array binding signal (z-score)", "setting": "[10]", "result": 0.841}, {"measurement": "glycan array binding signal (z-score)", "setting": "[11]", "result": 1.49}, {"measurement": "glycan array binding signal (z-score)", "setting": "[12]", "result": -1.37}, {"measurement": "glycan array binding signal (z-score)", "setting": "[13]", "result": -0.526}, {"measurement": "glycan array binding signal (z-score)", "setting": "[14]", "result": 0.129}, {"measurement": "glycan array binding signal (z-score)", "setting": "[15]", "result": 0.167}, {"measurement": "glycan array binding signal (z-score)", "setting": "[16]", "result": 0.879}, {"measurement": "glycan array binding signal (z-score)", "setting": "[17]", "result": 0.21}, {"measurement": "glycan array binding signal (z-score)", "setting": "[18]", "result": 0.883}, {"measurement": "glycan array binding signal (z-score)", "setting": "[19]", "result": 0.523}, {"measurement": "glycan array binding signal (z-score)", "setting": "[20]", "result": 1.41}, {"measurement": "glycan array binding signal (z-score)", "setting": "[21]", "result": -0.353}, {"measurement": "glycan array binding signal (z-score)", "setting": "[22]", "result": -1.45}, {"measurement": "glycan array binding signal (z-score)", "setting": "[23]", "result": 0.142}, {"measurement": "glycan array binding signal (z-score)", "setting": "[24]", "result": -0.029}, {"measurement": "glycan array binding signal (z-score)", "setting": "Gal(b1-3)GlcNAc6S", "result": -0.915}, {"measurement": "glycan array binding signal (z-score)", "setting": "[25]", "result": -0.038}, {"measurement": "glycan array binding signal (z-score)", "setting": "[26]", "result": 2.49}, {"measurement": "glycan array binding signal (z-score)", "setting": "[27]", "result": 1.53}, {"measurement": "glycan array binding signal (z-score)", "setting": "[28]", "result": -1.29}, {"measurement": "glycan array binding signal (z-score)", "setting": "[29]", "result": -1.22}, {"measurement": "glycan array binding signal (z-score)", "setting": "[30]", "result": 0.714}, {"measurement": "glycan array binding signal (z-score)", "setting": "[31]", "result": 1.22}, {"measurement": "glycan array binding signal (z-score)", "setting": "[32]", "result": -0.167}, {"measurement": "glycan array binding signal (z-score)", "setting": "[33]", "result": -0.162}, {"measurement": "glycan array binding signal (z-score)", "setting": "[34]", "result": -0.814}, {"measurement": "glycan array binding signal (z-score)", "setting": "Gal(b1-4)Gal", "result": 0.36}, {"measurement": "glycan array binding signal (z-score)", "setting": "[35]", "result": -1.06}, {"measurement": "glycan array binding signal (z-score)", "setting": "[36]", "result": -0.887}]}
